Experimental data taken from patent EP0606463B1, “NEUROMEDIN B RECEPTOR ANTAGONISTS” (The Administrators of The Tulane Educational Fund, priority 1992, dated 1994).
For at least one compound, name, drawing or mass did not settle the structure. Where a SMILES comes first, the peptide text is derived from it. Bridges are numbered along the chain shown (N, C = ends). [ ]: non-standard residue; d: D form. d2Nal = N[C@H](Cc1ccc2ccccc2c1)C(=O)O

Biological target: T1, rat NMB receptor (Rattus norvegicus, UniProt P24053)
T1 construct: a full length NMB-preferring bombesin receptor clone generated from rat esophagus; expressed in transfected cells; host or cells: BALB 3T3 cells
T1 sequence (P24053 1-390): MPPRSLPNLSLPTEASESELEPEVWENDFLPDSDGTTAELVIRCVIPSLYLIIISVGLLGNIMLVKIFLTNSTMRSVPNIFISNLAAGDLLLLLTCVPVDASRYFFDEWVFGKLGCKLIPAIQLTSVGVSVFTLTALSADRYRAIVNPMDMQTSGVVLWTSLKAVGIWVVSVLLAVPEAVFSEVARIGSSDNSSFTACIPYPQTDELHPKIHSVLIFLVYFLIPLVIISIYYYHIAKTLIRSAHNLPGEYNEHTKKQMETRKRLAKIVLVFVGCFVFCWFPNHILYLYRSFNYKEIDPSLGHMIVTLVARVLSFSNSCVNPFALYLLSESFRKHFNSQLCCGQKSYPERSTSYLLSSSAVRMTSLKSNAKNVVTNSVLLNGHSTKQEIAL
Assay: Binding of 125I-[D-Tyr0]NMB to NMB-R transfected BALB 3T3 cells
Conditions: Ki by method of Cheng, read-out: Ki (nM) ^123I-NMB Binding
Procedure: Cells were passaged every 3-4 days at confluence, using 0.1% trypsin in 1 mM EDTA. Rat glioblastoma C-6 tumor cells were maintained similarly and were passaged weekly at confluence. Both cell lines were cultured at 37°C in a 5% CO2 atmosphere. Rat AR 42J pancreatic acinar cells were cultured in Dulbecco's modified Eagle's medium (DMEM) without antibiotics and supplemented with 10% (vol/vol) fetal calf serum. The incubation atmosphere consisted of 10% CO2-90% humidified air at 37°C.

Compound `C[C@@H](O)[C@H](NC(=O)[C@@H]1CSSC[C@H](NC(=O)[C@H](N)Cc2ccc3ccccc3c2)C(=O)N[C@@H](Cc2ccccc2)C(=O)N[C@H](Cc2c[nH]c3ccccc23)C(=O)N[C@@H](CCCCN)C(=O)N[C@@H]([C@@H](C)O)C(=O)N1)C(N)=O` [Analog #18, [Phe^3, Thr^6,8]-cycle SS-octa] (H-[d2Nal]CF[dW]KTCT-NH2; disulfide 2-7) has a Ki of 19800 ± 4240 nM.
